The target in test [1] is T1, Biotinylated recombinant human CD6 (human) (UniProt P30203).
T1 sequence (biotinylated (site not stated), looked up): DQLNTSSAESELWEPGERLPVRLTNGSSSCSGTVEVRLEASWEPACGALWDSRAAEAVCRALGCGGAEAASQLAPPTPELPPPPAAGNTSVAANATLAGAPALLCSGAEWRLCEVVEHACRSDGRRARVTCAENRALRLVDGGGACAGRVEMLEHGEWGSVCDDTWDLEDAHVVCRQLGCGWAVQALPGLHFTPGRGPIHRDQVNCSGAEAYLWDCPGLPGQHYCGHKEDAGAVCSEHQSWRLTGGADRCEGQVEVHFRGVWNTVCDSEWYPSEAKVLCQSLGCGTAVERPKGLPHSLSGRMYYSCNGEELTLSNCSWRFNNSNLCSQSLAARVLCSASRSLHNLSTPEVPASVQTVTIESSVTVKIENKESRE
As to the kind of experiment: SPR (Biacore 3000), biotinylated rhCD6 on SA chip, itolizumab 900 nM to 0.137 nM. For orientation: SPR reads the build-up and loss of mass on a sensor chip optically.

The target of test [2] is T1, Biotinylated recombinant human CD6 (human). As to the kind of experiment: SPR (Biacore 3000), biotinylated rhCD6 captured on SA chip at three densities, antibody as analyte.
For test [3] the target is unchanged. In words: SPR (Biacore 3000), biotinylated rhCD6 on SA chip, Fab 900 nM to 11.1 nM.

No constants are given. Whether binding was seen depends on the method and setting. Some results given as binding are weak or reduced against the parent protein; the word gives no strength.

B1: itolizumab (antibody, human IgG1, kappa, V domains shown)
VH: EVQLVESGGGLVKPGGSLKLSCAASGFKFSRYAMSWVRQAPGKRLEWVATISSGGSYIYYPDSVKGRFTISRDNVKNTLYLQMSSLRSEDTAMYYCARRDYDLDYFDSWGQGTLVTVSS
VL: DIQMTQSPSSLSASVGDRVTITCKASRDIRSYLTWYQQKPGKAPKTLIYYATSLADGVPSRFSGSGSGQDYSLTISSLESDDTATYYCLQHGESPFTLGSGTKLEIKR
notes: Humanized anti-CD6 monoclonal antibody; also called EQ001; ALZUMAB
Regarding B1, the binding entry in test [1] and in test [2] was “binds” in each case.

B2: itolizumab fab (Fab, V domains shown)
VH: B1 VH
VL: DIQMTQSPSSLSASVGDRVTITCKASRDIRSYLTWYQQKPGKAPKTLIYYATSLADGVPSRFSGSGSGQDYSLTISSLESDDTATYYCLQHGESPFTLGSGTKLEIK
Turning to B2, the binding entry in test [3] was “binds”.

For the origin of these results see US20240053360A1 (EQUILLIUM, published 2024).
